# In US20120282296A1, “METHODS FOR IMPROVING THE DESIGN, BIOAVAILABILITY, AND EFFICACY OF DIRECTED SEQUENCE POLYMER COMPOSITIONS VIA SERUM PROTEIN-BASED DETECTION OF DIRECTED SEQUENCE POLYMER COMPOSITIONS” (ARES TRADING SA, priority 2009, published 2012):
# Tested on: serum proteins
# Test: Identification of serum proteins bound to PI-2301 or Cop-1 by LC-MS/MS
# Format: binding, normal mouse serum or normal human serum
substance,measurement,value
plovamer [PI-2301],serum proteins found bound (LC-MS/MS identification),several lipoproteins from the HDL and LDL complexes
